Measurements as given in patent US20200283478A1.
These are yes or no findings as the source states them, for the method shown. Some entries that bind do so weakly or less than the wild type.

Chains of the proteins cited; added tags and fusions are not shown. Lines headed by an entry give the natural chain unless they say otherwise; changes in a name come on top.
UniProt Q8NBP7: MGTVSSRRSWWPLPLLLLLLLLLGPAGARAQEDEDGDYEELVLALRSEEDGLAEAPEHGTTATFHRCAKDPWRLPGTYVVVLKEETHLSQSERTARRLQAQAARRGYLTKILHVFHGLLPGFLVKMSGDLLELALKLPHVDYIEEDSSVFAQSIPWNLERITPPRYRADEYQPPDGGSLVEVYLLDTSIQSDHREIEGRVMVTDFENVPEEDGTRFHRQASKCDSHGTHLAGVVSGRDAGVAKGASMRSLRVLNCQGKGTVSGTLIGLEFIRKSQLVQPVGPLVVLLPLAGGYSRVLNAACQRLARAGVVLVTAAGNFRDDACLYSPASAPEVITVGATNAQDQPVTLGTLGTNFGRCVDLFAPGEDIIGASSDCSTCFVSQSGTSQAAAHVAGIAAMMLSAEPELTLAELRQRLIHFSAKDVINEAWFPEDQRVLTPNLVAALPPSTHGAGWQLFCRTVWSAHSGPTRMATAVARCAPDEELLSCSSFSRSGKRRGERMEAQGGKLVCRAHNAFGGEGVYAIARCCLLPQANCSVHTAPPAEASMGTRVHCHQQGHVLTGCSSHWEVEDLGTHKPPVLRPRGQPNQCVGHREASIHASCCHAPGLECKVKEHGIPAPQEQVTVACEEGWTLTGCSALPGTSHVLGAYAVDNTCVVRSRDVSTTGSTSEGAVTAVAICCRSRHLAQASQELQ

B1: Compound 23 (peptide)
peptide: SPCRVGYTPC
modifications: Ac-; -NH2
B2: Compound 28 (peptide)
peptide: SGDLMPWNLVRIGLLR
B3: Compound 33 (peptide)
peptide: SGSGCFIPWNLQRIGLLC
modifications: FAM (5-carboxyfluorescein) at N-terminus; -NH2; disulfide
B4: Compound 34 (peptide)
peptide: SGSGCRLPWNLQRIGLPC
modifications: FAM (5-carboxyfluorescein) at N-terminus; -NH2; disulfide
B5: Compound 45 (peptide)
peptide: ALMPWNLVRIGLLR
modifications: Ac-; -NH2
B6: Compound 55 (peptide)
peptide: DLMPWNLVRIGLAR
modifications: Ac-; -NH2
B7: Compound 96 (peptide)
peptide: FCLWNLKRIGAQCWF
modifications: Ac-; -NH2; disulfide
B8: SEQ ID NO 383 (peptide)
peptide: SGCFIPWNLQRIGLLC
B9: SEQ ID NO 384 (peptide)
peptide: SGGACPWNLERIGLSC
B10: SEQ ID NO 385 (peptide)
peptide: SGDFIPWNLVRIGLLR
B11: SEQ ID NO 386 (peptide)
peptide: SGCRLPWNLQRIGLPC
B12: SEQ ID NO 388 (peptide)
peptide: SGACVKPCIAGNIIR
B13: SEQ ID NO 389 (peptide)
peptide: SGDLMPWNLVRIGLLR
B14: SEQ ID NO 390 (peptide)
peptide: SGGSMPWNLERIFALH
B15: SEQ ID NO 391 (peptide)
peptide: SGCSDLWNLARIYPMC
B16: Compound 88 (peptide)
peptide: FCLWNLARIGSQCWF
modifications: Ac-; -NH2; disulfide

What follows are binders tested against proprotein convertase subtilisin/kexin type 9 (PCSK9) (human) (UniProt Q8NBP7) (assay: SPR).

binding, binds:
B1, B2, B3, B4, B5, B6, B7

Each binder was assayed against proprotein convertase subtilisin/kexin type 9 (PCSK9) (human) (UniProt Q8NBP7) (assay: phage spot ELISA).

binding, binds:
B8, B9, B10, B11, B12, B13, B14, B15

These binders were tested against proprotein convertase subtilisin/kexin type 9 (PCSK9) (human) (UniProt Q8NBP7) (assay: TR-FRET competition, EGF(A)-Fc as competitor).

binding, binds:
B16
